Data taken from patent publication US9138439B2, “Methods and compositions for modulating P300/CBP activity” (The Wistar Institute, priority 2007, dated 2015).
Some of these results come from one statement about several compounds together.

The chains behind the UniProt entries cited, without tags or fusion partners. Residues count along the entry.
UniProt Q09472, 2-2414 limits assumed: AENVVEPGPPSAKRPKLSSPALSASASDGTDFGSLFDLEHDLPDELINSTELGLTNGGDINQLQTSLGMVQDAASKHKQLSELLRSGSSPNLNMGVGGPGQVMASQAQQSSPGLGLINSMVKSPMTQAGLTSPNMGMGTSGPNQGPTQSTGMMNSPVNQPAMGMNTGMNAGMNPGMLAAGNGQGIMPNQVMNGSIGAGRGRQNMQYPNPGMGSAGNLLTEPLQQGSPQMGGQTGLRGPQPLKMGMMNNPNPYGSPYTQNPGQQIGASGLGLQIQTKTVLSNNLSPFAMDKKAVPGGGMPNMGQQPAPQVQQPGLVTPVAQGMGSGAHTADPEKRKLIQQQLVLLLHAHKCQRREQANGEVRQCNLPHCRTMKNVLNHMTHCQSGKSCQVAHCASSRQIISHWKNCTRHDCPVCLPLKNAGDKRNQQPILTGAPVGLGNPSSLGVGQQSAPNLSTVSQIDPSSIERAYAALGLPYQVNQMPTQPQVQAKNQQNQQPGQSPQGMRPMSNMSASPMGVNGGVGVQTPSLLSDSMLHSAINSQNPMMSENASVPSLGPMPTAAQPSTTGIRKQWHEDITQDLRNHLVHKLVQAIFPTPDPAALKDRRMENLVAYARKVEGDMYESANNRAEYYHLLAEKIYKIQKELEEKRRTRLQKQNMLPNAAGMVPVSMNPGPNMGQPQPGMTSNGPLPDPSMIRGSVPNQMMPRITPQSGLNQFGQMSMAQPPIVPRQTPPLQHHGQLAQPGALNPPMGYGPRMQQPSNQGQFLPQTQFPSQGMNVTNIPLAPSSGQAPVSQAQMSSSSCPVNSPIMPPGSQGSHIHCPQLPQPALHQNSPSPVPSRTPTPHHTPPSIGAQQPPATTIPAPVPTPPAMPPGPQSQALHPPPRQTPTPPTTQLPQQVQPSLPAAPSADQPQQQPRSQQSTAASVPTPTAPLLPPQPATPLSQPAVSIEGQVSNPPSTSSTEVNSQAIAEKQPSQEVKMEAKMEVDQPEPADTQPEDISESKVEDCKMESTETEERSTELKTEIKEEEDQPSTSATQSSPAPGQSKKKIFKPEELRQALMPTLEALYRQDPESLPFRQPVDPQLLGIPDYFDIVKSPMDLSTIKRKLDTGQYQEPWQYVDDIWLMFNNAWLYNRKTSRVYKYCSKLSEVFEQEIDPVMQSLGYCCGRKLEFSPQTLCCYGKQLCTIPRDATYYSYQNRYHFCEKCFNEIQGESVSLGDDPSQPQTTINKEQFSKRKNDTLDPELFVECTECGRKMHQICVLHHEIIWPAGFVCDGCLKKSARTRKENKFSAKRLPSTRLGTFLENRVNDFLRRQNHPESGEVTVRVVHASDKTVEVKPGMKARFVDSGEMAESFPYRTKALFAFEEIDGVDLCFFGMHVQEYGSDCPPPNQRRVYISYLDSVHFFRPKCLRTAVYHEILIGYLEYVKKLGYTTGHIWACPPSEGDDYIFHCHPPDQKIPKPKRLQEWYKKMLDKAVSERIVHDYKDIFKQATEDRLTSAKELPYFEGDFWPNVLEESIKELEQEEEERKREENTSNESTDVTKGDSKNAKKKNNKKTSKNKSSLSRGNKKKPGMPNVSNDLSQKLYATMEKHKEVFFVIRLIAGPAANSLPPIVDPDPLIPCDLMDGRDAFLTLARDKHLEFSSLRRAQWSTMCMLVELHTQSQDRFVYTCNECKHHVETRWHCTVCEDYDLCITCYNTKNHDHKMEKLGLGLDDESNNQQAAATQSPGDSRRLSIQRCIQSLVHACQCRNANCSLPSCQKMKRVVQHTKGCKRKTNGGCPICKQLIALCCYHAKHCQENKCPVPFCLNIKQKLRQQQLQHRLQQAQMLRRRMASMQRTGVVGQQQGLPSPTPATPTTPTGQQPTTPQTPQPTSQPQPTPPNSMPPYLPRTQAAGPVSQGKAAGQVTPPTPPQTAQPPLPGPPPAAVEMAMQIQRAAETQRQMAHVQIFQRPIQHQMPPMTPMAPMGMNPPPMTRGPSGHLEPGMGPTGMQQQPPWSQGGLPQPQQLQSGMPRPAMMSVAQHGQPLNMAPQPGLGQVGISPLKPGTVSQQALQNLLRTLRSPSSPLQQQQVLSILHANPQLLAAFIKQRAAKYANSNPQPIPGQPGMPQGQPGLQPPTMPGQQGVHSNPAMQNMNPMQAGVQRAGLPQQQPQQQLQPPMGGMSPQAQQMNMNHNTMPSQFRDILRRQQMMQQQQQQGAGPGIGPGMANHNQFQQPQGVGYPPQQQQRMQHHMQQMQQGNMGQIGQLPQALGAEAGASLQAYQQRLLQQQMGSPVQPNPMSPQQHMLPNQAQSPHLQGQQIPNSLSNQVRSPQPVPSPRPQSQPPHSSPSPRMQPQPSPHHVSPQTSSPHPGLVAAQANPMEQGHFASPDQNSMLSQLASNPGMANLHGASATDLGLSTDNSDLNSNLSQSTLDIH

Biological target: T1, p300 HAT (Homo sapiens, UniProt Q09472)
T1 construct: residues 1653-1666 are a ligated synthetic peptide
Test: p300 HAT inhibition: IC50, Ki and pattern of inhibition versus acetyl-CoA and H4-15
Type: biochemical
Conditions: after secondary and tertiary screens

Row | SMILES | IC50
1 | O=C(O)c1ccc(O)c(/C=N/c2ccc3oc(-c4cccc(I)c4)nc3c2)c1 [Compound 17.3] | < 20 µM
2 | Cc1ccc(NC(=O)CN2C(=O)S/C(=C\c3ccc(-c4ccc(C(=O)O)c(Cl)c4)o3)C2=O)cc1 [Compound 17.2] | < 20 µM
